Test system: SH-SY5Y cells
Experiment: Cytotoxicity MTS assay, SH-SY5Y
Format: cell-based
Conditions: ratio of toxicity towards neuronal cells and inhibition potency towards BChE
Protocol: HepG2 and HEK293 cells were grown in EMEM and SH-SY5Y in DMEM-F12, as described previously, and cell cultivation and maintenance were conducted according to standard protocol. All media and supplements were purchased from Sigma-Aldrich, Steinheim, Germany.
The cytotoxic profiles of tested compounds were determined by measuring the succinate dehydrogenase mitochondrial activity of exposed cells. The commercially available MTS detection reagent assay (CellTiter 96® AQueous One Solution Cell Proliferation Assay, Promega, Madison, WI, USA) was used. The procedure followed a previously described protocol. Cells were exposed to compounds in a concentration range of 0.01–1000 µM for 24 h. DMSO (20%) was used as positive control to validate the method. After desired time of incubation at 37 °C in a 5% CO2 atmosphere, cells were washed with PBS buffer and 100 µL of EMEM or DMEM medium and 20 µL of MTS were added in each well, incubated up to 1 h after which the absorbance was read at 492 nm on an Infinite M200PRO plate reader (Tecan Austria GmbH, Salzburg, Austria). Data are presented as percentages of the inhibited cells to control untreated cells, i.e., the percentage of cytotoxicity.

| Compound | IC50 (SH-SY5Y)/Ki(BChE) |
| --- | --- |
| CCN(CC)Cc1cc(Nc2ccnc3ccc(C(F)(F)F)cc23)ccc1O [Compound 9] | ≥ 50 |
| CCN(CC)Cc1cc(Nc2ccnc3cc(C(F)(F)F)ccc23)ccc1O [Compound 2] | ≥ 50 |
| CCN(CCO)Cc1cc(Nc2ccnc3cc(Cl)ccc23)ccc1O [Compound 14] | ≥ 50 |
| CCN(CC)Cc1cc(Nc2ccnc3ccccc23)ccc1O [Compound 6] | ≥ 50 |

— PMC11596630 (Molecules, 2024)
